{
  "sequences": {"note": "The chains behind the UniProt entries cited, without tags or fusion partners.", "UniProt Q0JBA9, entry or part of it": "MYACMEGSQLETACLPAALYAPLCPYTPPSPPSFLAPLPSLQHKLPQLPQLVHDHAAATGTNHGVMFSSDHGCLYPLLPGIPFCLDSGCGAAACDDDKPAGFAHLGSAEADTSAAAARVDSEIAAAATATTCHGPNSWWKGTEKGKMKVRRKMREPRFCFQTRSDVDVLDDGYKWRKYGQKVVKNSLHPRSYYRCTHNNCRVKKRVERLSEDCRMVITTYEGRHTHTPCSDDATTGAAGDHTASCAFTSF"},
  "source": "paper PMC7819943",
  "about": "“Rice protein-binding microarrays: a tool to detect cis-acting elements near promoter regions in rice”",
  "note": "The other results are listed elsewhere or left out.",
  "data": [
    {"biological_target": "OsWRKY34 (Oryza sativa, UniProt Q0JBA9 1-250)", "assay": "protein-binding microarray (RPBM); PBS, 2% BSA, 51.3 ng/ul salmon testes DNA, 50 uM zinc acetate, 200 nM TF, 25 C, 1 h; high values mean tight binding", "conditions": "protein: recombinant; tags: N-terminal polyhistidine and DsRed monomer fusion (pET32a); label: CyDye5-dUTP incorporated in the synthesized complementary strand; 3' TTTTT single-stranded linker to array surface; dsDNA, one strand shown", "outline": "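An Axon 4000B scanner gave the binding signal as per-feature fluorescence intensity in arbitrary units. This followed washing of a custom Agilent array that had been incubated for 1 h at 25 °C with 200 nM protein in PBS, 2% BSA, salmon testes DNA and 50 µM zinc acetate. The proteins were transcription factors fused at the N-terminus to polyhistidine and DsRed, expressed in E. coli BL21-CodonPlus and purified on Ni–NTA.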", "values": [
      {"sequence": "CTCCTCCGCTCCTCTCTCGCCCACCACCGCGCGCCCTTTCCGGAGTCACCTAGTGCAG", "binding signal": "8330 fluorescence intensity (a.u.)"},
      {"sequence": "TGCTTTGAGTGAAATGTTTCTGGCTTTCTGCTACCCTTTTCGGAGTCACCTAGTGCAG", "binding signal": "8640 fluorescence intensity (a.u.)"},
      {"sequence": "TCCACGTCGCTACGCGCCACCAGCCAGACGGCCTGCCCAACGGAGTCACCTAGTGCAG", "binding signal": "8760 fluorescence intensity (a.u.)"},
      {"sequence": "TACTCAATGTCTAATGGGGTGTTTGGATGGGACTAATTTTCGGAGTCACCTAGTGCAG", "binding signal": "13000 fluorescence intensity (a.u.)"},
      {"sequence": "GCTCAATTCCTTGCTTGTTTGCTTCCATATTACACTACATCGGAGTCACCTAGTGCAG", "binding signal": "13000 fluorescence intensity (a.u.)"},
      {"sequence": "TCGTTGATTTTTGACATGATGTTTGACCATTCTTATTATTCGGAGTCACCTAGTGCAG", "binding signal": "9750 fluorescence intensity (a.u.)"},
      {"sequence": "CCACGCCACGCGCCGCTCTCACTCGGTCACTCTCACTCTTCGGAGTCACCTAGTGCAG", "binding signal": "9750 fluorescence intensity (a.u.)"},
      {"sequence": "GTTTTGTATGGTTCTCTGGATATATTACTGCCTGTAAATTCGGAGTCACCTAGTGCAG", "binding signal": "8320 fluorescence intensity (a.u.)"},
      {"sequence": "CCCTTCGCCGCATAACGAACATTGCACTTTCACATAAAAGCGGAGTCACCTAGTGCAG", "binding signal": "8440 fluorescence intensity (a.u.)"},
      {"sequence": "AATAAGCTTTCACTTTCATCCCAGCACAATATGCATGCAACGGAGTCACCTAGTGCAG", "binding signal": "8100 fluorescence intensity (a.u.)"},
      {"sequence": "CGGTTGGACTAAGTCAACGTGCCGCCTTAGTAAAAATCGCCGGAGTCACCTAGTGCAG", "binding signal": "8180 fluorescence intensity (a.u.)"},
      {"sequence": "CCATTTTTCGTCGCTGGCTCGCTCGCTTTCTCCTCGCGCTCGGAGTCACCTAGTGCAG", "binding signal": "11300 fluorescence intensity (a.u.)"},
      {"sequence": "GTACATATAGCTACCCGAACCACCGCCGCCGCCGCCGCCACGGAGTCACCTAGTGCAG", "binding signal": "9870 fluorescence intensity (a.u.)"},
      {"sequence": "GGAAGGAGGGGAGGAGTAGTAGGAGGAGGAGGAGGAGATGCGGAGTCACCTAGTGCAG", "binding signal": "12800 fluorescence intensity (a.u.)"},
      {"sequence": "TACTATATAATTTTCTTTCATATGTTCTCTATAGTCTATACGGAGTCACCTAGTGCAG", "binding signal": "9880 fluorescence intensity (a.u.)"},
      {"sequence": "AATCACTCGGATTAATCCCTACCGTCCATCCGCGCGCACGCGGAGTCACCTAGTGCAG", "binding signal": "8200 fluorescence intensity (a.u.)"},
      {"sequence": "GGCGGCGGCGGCGGCGGAGGAGGCGGCGGGTCTAGGGTTGCGGAGTCACCTAGTGCAG", "binding signal": "9570 fluorescence intensity (a.u.)"},
      {"sequence": "CTATGTGCCTACTTCCATTCTCCTTCGTCATATTACATAACGGAGTCACCTAGTGCAG", "binding signal": "10800 fluorescence intensity (a.u.)"},
      {"sequence": "TCACCCACCTGTTGACTACCATCACCACTCCTCGTCTGGACGGAGTCACCTAGTGCAG", "binding signal": "8590 fluorescence intensity (a.u.)"},
      {"sequence": "CCGACGCCTACTACTTCGCCCACTAGCCACGCGTGCTGCCCGGAGTCACCTAGTGCAG", "binding signal": "9050 fluorescence intensity (a.u.)"},
      {"sequence": "ATGTCATTTTTTTTTCTTTTTGAAGAATTCTGCCTATATACGGAGTCACCTAGTGCAG", "binding signal": "9050 fluorescence intensity (a.u.)"},
      {"sequence": "TATAATGTCCCTTTTGCTTGCCTTTTTGTTTACAGCATTACGGAGTCACCTAGTGCAG", "binding signal": "8280 fluorescence intensity (a.u.)"},
      {"sequence": "TTGTGGTTTTCTTGAATTGTTAGGTTGGGTTGTGGTTATGCGGAGTCACCTAGTGCAG", "binding signal": "9250 fluorescence intensity (a.u.)"},
      {"sequence": "TCGTCGTGTTCGTGTTTTTTTTCTTCCAATCTGCGCGCGTCGGAGTCACCTAGTGCAG", "binding signal": "8990 fluorescence intensity (a.u.)"},
      {"sequence": "CCGCGTCCGCGCCCGTCCCCACGCCACCAGGCGGTCTCCGCGGAGTCACCTAGTGCAG", "binding signal": "8290 fluorescence intensity (a.u.)"},
      {"sequence": "TATACTCCTTTATTATTTATCTGGGCCCACCTTACAACTCCGGAGTCACCTAGTGCAG", "binding signal": "8880 fluorescence intensity (a.u.)"},
      {"sequence": "ATAATCTCCACATGCATCGTCGCTGTATTTTTTGGTTTCACGGAGTCACCTAGTGCAG", "binding signal": "8510 fluorescence intensity (a.u.)"},
      {"sequence": "GGGTCGATACGAATTGGGGATTCTGCAGTTGTTTCTGCTCCGGAGTCACCTAGTGCAG", "binding signal": "11900 fluorescence intensity (a.u.)"},
      {"sequence": "TAATTTCTCTCTTTTGATTCTATTATCATGCTCCGCACAACGGAGTCACCTAGTGCAG", "binding signal": "8070 fluorescence intensity (a.u.)"},
      {"sequence": "TCTAGTCAAGGCTTAGCTCCTGTTGTCTTTCGTTTTTCCGCGGAGTCACCTAGTGCAG", "binding signal": "9910 fluorescence intensity (a.u.)"},
      {"sequence": "ATCACCGTCGTTGTATCCAAATTAAGCTCGCGCCGTGGAACGGAGTCACCTAGTGCAG", "binding signal": "8330 fluorescence intensity (a.u.)"},
      {"sequence": "TCCTGCCACCACCACCATGGCACCAGCTCAGCTCAGCTCACGGAGTCACCTAGTGCAG", "binding signal": "8020 fluorescence intensity (a.u.)"},
      {"sequence": "GTATGACGCCGTTGACTTTTTGGCCAACGTTTGACCATTCCGGAGTCACCTAGTGCAG", "binding signal": "41500 fluorescence intensity (a.u.)"},
      {"sequence": "TCTTTTGGGGACCATCTCATCCCACCCATCCTCAAACAAACGGAGTCACCTAGTGCAG", "binding signal": "8990 fluorescence intensity (a.u.)"},
      {"sequence": "AATCCCATATTTTCCATTATTTTTTGTTTTATTTATGCTCCGGAGTCACCTAGTGCAG", "binding signal": "10600 fluorescence intensity (a.u.)"},
      {"sequence": "CTCTCTCTCGCGTTCCATTGCCACCACTGCATGCGTCACCCGGAGTCACCTAGTGCAG", "binding signal": "10400 fluorescence intensity (a.u.)"},
      {"sequence": "TGATGCAGCTGATCCTCTACGCGATCTACCGGAACCACAACGGAGTCACCTAGTGCAG", "binding signal": "9980 fluorescence intensity (a.u.)"},
      {"sequence": "ATTCTTTACTTACATTTAATCAACTTCTACGGCATATTTTCGGAGTCACCTAGTGCAG", "binding signal": "8890 fluorescence intensity (a.u.)"},
      {"sequence": "AGTAGTATATGGGCCCACCGTCAGTCACCTGGAATATCCCCGGAGTCACCTAGTGCAG", "binding signal": "9590 fluorescence intensity (a.u.)"},
      {"sequence": "TCTCTCTCACGTATGTTGTCTGTCCAGAACTCTTTCTAGTCGGAGTCACCTAGTGCAG", "binding signal": "9100 fluorescence intensity (a.u.)"},
      {"sequence": "CTAGCTGTAGAATTTTACATTTTCCCTGCGGTTTATAACACGGAGTCACCTAGTGCAG", "binding signal": "8070 fluorescence intensity (a.u.)"},
      {"sequence": "CTGTTTGCGCTGTACTTTTCCTTCTCGCCGCCAGCGTCGCCGGAGTCACCTAGTGCAG", "binding signal": "16000 fluorescence intensity (a.u.)"}
    ]}
  ]
}
